The chains behind the UniProt entries cited, without tags or fusion partners. Where a name states a change or a piece, a line headed by the entry shows the natural chain unless it says otherwise.
UniProt Q14247: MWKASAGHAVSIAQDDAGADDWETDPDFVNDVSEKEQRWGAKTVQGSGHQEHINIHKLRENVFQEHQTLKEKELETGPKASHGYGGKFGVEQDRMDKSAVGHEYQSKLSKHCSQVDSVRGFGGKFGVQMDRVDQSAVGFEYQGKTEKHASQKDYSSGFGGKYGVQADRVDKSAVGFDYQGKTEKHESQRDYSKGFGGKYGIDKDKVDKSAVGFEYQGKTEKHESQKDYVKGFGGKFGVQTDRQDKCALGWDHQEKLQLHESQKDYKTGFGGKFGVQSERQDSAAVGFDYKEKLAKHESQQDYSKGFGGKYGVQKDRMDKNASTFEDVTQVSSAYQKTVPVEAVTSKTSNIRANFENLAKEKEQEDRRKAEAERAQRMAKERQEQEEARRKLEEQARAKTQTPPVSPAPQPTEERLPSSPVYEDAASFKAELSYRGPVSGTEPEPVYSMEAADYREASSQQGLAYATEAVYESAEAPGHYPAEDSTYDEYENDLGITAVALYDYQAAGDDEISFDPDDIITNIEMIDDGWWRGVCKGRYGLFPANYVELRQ

According to article PMC5412012, “HS1BP3 negatively regulates autophagy by modulation of phosphatidic acid levels” (Nature Communications, 2016):

T1: HS1 SH3 domain (UniProt P14317)
T1 sequence: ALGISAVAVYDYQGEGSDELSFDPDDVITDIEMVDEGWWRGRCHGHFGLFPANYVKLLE


What was measured:
Assay in all cases: pull-down; taken to be the GST pull-down of the methods (glutathione sepharose, immunoblotting); whether with 1 ug recombinant GST- or MBP-tagged proteins in NETN buffer or from cell lysate is not told for this experiment
HS1 SH3 domain = target: T1, HS1 SH3 domain
[1] = target: HS1 SH3 domain, critical tryptophan mutated to tyrosine (UniProt P14317)
[2] = target: cortactin SH3 domain, critical tryptophan mutated to tyrosine (UniProt Q14247)

| binding (HS1 SH3 domain) | binding [1] | binding [2] | Molecule |
| --- | --- | --- | --- |
| binds | – | – | HS1BP3-ΔPX (human) (domain or fragment) |
| – | no binding | no binding | HS1BP3 (construct of the SH3 domain interaction assay, Supplementary Fig. 3b) (protein, UniProt Q53T59 1-392) MQSPAVLVTSRRLQNAHTGLDLTVPQHQEVRGKMMSGHVEYQILVVTRLAAFKSAKHRPEDVVQFLVSKKYSEIEEFYQKLSSRYAAASLPPLPRKVLFVGESDIRERRAVFNEILRCVSKDAELAGSPELLEFLGTRSPGAAGLTSRDSSVLDGTDSQTGNDEEAFDFFEEQDQVAEEGPPVQSLKGEDAEESLEEEEALDPLGIMRSKKPKKHPKVAVKAKPSPRLTIFDEEVDPDEGLFGPGRKLSPQDPSEDVSSVDPLKLFDDPDLGGAIPLGDSLLLPAACESGGPTPSLSHRDASKELFRVEEDLDQILNLGAEPKPKPQLKPKPPVAAKPVIPRKPAVPPKAGPAEAVAGQQKPQEQIQAMDEMDILQYIQDHDTPAQAAPSLF |

Results are given in words; binding and its absence hold for the method and conditions named. In cells and extracts the contact can be indirect. For part of these data: A result given as binding can be weak or reduced; the word gives no strength.
